Results from the supplement of paper PMC6078165.

Test system: HCC1143
Assay: relative JC-1 red fluorescence (viability) vs pre-drug, coculture with fibroblast (fraction); higher = more viable cancer cells
Procedure: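 JC-1 labelled TNBC cells cocultured 1:1 (1,500 cells each) with CellTrace Violet stained primary or stromal fibroblasts in 384-well plates in FluoroBrite medium, treated with one of 42 anticancer drugs at 0.1, 1, 10 or 100 uM. JC-1 red fluorescence (mitochondrial integrity in cancer cells only) was read by plate reader every 8 h for 72 h. Values are normalised to each well's pre-drug value. The stock of one drug was tenfold lower, so its dose labels may be too high.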

O=C(O)CCCc1ccc(N(CCCl)CCCl)cc1 [Chlorambucil]
relative JC-1 red fluorescence
Settings	8 h	16 h	24 h	32 h	40 h	48 h	56 h	64 h	72 h
10 µM, coculture fibroblast: C12385	0.852	0.802	0.752	0.706	0.661	0.622	0.584	0.541	0.518
10 µM, coculture fibroblast: H6013	0.737	0.651	0.609	0.588	0.516	0.501	0.463	0.442	0.416
10 µM, coculture fibroblast: H6019	0.8047	0.712	0.655	0.599	0.541	0.516	0.467	0.422	0.387
10 µM, coculture fibroblast: H6076	0.8059	0.814	0.76	0.714	0.677	0.656	0.618	0.588	0.585
10 µM, coculture fibroblast: H6231	0.843	0.794	0.744	0.685	0.643	0.614	0.577	0.549	0.528
10 µM, coculture fibroblast: HADF	0.752	0.705	0.675	0.667	0.591	0.571	0.538	0.514	0.492
10 µM, coculture fibroblast: HCFa	0.7872	0.712	0.655	0.655	0.546	0.511	0.457	0.4159	0.399
10 µM, coculture fibroblast: HCPF	0.789	0.819	0.739	0.612	0.627	0.584	0.538	0.504	0.479
10 µM, coculture fibroblast: HHSteC	0.8095	0.746	0.696	0.646	0.572	0.542	0.494	0.46	0.412
10 µM, coculture fibroblast: HMF	0.796	0.846	0.787	0.722	0.724	0.698	0.674	0.645	0.616
10 µM, coculture fibroblast: HPFa	0.928	0.884	0.892	0.818	0.77	0.755	0.706	0.663	0.627
10 µM, coculture fibroblast: HUF	0.869	0.772	0.697	0.611	0.548	0.492	0.44	0.391	0.354
10 µM, coculture fibroblast: Hs5	0.829	0.85	0.7829	0.7395	0.67	0.647	0.62	0.578	0.58
10 µM, coculture fibroblast: Hs27A	0.746	0.67	0.62	0.643	0.507	0.488	0.447	0.425	0.438
10 µM, coculture fibroblast: Hs343T	0.8303	0.893	0.835	0.725	0.731	0.694	0.637	0.605	0.559
10 µM, coculture fibroblast: WS1	0.829	0.755	0.6948	0.615	0.549	0.492	0.438	0.388	0.355
100 µM, coculture fibroblast: C12385	0.853	0.7604	0.6929	0.625	0.552	0.497	0.454	0.399	0.366
100 µM, coculture fibroblast: H6013	0.78	0.702	0.656	0.644	0.56	0.545	0.503	0.473	0.445
100 µM, coculture fibroblast: H6019	0.8296	0.73531	0.66806	0.593	0.534	0.485	0.436	0.379	0.339
100 µM, coculture fibroblast: H6076	0.799	0.7916	0.712	0.633	0.595	0.566	0.527	0.498	0.492
100 µM, coculture fibroblast: H6231	0.811	0.805	0.695	0.586	0.5982	0.548	0.499	0.456	0.425
100 µM, coculture fibroblast: HADF	0.761	0.693	0.664	0.671	0.575	0.551	0.506	0.476	0.452
100 µM, coculture fibroblast: HCFa	0.794	0.695	0.63084	0.6134	0.508	0.465	0.414	0.366	0.339
100 µM, coculture fibroblast: HCPF	0.795	0.809	0.717	0.587	0.604	0.563	0.51	0.477	0.448
100 µM, coculture fibroblast: HHSteC	0.817	0.716	0.666	0.621	0.539	0.513	0.466	0.424	0.365
100 µM, coculture fibroblast: HMF	0.798	0.841	0.751	0.643	0.648	0.609	0.558	0.523	0.48
100 µM, coculture fibroblast: HPFa	0.9037	0.812	0.75387	0.668	0.594	0.546	0.486	0.436	0.393
100 µM, coculture fibroblast: HUF	0.894	0.8	0.725	0.636	0.573	0.538	0.472	0.419	0.38
100 µM, coculture fibroblast: Hs5	0.8322	0.809	0.758	0.713	0.655	0.619	0.578	0.554	0.533
100 µM, coculture fibroblast: Hs27A	0.726	0.639	0.585	0.606	0.486	0.469	0.439	0.417	0.425
100 µM, coculture fibroblast: Hs343T	0.79	0.8472	0.738	0.613	0.613	0.562	0.503	0.473	0.418
100 µM, coculture fibroblast: WS1	0.826	0.716	0.641	0.566	0.507	0.462	0.412	0.3585	0.316

The reference is the same well before dosing, and untreated signal decays as well.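 Labels refer to human fibroblasts, largely primary: uterine (C12385, HUF), lung (H6013), bone (Hs27A), adrenal (HADF), skin (WS1), plus mammary HMF and breast cancer-associated Hs343T. Cancer lines are basal-like or mesenchymal-like triple-negative breast cancer. The paper counts as hits responses shifting over 3x the replicate standard deviation. The tissue of the other fibroblasts is not given here.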
